Test results taken from the supplement of paper PMC11732987, “Enantioselective OTUD7B fragment discovery through chemoproteomics screening and high-throughput optimisation” (Communications Chemistry, 2025).
The list shows a part of the results. The data scatter; read single values as rough.

Protein sequences, listed by entry. Tags and fused reporters are not part of them. Lines headed by an entry give the natural chain unless they say otherwise; changes in a name come on top. Residues count along the entry.
UniProt P09382: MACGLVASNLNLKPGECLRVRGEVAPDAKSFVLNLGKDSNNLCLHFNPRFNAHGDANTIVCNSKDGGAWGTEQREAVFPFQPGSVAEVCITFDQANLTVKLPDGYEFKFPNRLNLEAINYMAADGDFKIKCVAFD
UniProt Q9BQ90: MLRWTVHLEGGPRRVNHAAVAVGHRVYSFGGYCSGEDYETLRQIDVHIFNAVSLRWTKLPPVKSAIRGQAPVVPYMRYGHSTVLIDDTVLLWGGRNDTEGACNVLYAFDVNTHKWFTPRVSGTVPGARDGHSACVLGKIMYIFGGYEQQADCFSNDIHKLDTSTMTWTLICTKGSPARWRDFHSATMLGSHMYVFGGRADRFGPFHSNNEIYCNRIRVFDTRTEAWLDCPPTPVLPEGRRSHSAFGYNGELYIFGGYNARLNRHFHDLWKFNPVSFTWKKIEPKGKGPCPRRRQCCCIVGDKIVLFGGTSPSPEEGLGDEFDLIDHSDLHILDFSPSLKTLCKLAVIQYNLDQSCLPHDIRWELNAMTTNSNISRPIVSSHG
UniProt Q9BQK8: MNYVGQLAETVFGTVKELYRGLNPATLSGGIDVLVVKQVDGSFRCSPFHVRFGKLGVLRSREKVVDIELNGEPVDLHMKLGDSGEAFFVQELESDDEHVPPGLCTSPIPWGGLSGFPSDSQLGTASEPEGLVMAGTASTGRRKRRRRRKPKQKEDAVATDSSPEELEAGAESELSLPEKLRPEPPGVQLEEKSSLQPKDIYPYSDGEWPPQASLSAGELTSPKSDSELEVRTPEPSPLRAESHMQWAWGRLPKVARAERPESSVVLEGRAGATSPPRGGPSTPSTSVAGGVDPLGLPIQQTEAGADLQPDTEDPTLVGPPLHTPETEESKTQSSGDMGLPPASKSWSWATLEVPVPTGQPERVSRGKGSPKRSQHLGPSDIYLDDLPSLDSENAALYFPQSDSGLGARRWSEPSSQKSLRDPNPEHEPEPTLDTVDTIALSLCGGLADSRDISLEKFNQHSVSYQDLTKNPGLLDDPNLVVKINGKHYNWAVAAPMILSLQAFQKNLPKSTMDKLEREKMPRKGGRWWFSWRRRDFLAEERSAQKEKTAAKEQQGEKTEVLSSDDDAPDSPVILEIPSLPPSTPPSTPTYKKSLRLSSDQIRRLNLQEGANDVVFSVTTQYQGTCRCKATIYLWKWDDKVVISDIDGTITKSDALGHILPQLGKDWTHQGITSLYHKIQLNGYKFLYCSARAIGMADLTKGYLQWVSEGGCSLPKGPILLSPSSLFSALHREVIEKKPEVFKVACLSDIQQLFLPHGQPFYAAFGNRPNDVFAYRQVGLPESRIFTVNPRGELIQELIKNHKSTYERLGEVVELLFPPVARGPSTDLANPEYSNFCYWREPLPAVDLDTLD
UniProt Q9H6V9: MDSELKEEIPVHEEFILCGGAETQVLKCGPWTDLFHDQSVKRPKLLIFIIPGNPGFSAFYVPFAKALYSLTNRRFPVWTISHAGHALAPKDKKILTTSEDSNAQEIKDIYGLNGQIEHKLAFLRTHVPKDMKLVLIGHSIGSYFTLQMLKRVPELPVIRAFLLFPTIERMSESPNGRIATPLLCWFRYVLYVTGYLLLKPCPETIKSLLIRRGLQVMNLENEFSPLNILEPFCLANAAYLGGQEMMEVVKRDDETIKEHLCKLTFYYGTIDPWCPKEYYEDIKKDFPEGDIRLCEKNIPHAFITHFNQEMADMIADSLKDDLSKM
UniProt Q8IVT5: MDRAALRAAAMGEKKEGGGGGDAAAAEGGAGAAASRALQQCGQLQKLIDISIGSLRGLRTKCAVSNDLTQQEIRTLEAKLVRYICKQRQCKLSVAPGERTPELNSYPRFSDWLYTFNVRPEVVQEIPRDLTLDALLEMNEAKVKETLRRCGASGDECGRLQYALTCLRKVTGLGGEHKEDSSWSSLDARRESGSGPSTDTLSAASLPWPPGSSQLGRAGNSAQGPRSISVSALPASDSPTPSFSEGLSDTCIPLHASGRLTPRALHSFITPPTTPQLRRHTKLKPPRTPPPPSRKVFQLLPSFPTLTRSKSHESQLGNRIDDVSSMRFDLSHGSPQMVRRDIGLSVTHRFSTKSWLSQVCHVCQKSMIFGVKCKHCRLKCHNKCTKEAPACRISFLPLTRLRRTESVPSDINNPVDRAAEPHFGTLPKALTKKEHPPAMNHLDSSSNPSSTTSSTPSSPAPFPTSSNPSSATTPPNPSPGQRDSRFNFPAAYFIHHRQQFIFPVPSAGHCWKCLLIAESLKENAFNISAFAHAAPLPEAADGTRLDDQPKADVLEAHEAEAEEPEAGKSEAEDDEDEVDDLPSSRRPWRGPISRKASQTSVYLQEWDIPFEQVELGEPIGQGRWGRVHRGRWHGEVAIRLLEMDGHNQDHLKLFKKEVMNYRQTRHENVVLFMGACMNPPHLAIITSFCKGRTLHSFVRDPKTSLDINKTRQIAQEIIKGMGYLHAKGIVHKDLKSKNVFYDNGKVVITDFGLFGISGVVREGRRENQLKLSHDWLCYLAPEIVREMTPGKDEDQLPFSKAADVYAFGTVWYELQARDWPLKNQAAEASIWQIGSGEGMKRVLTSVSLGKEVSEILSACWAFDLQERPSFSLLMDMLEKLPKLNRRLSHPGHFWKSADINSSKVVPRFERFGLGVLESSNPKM
UniProt Q9P244, 642-664: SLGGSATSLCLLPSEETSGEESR
UniProt Q9UIQ6: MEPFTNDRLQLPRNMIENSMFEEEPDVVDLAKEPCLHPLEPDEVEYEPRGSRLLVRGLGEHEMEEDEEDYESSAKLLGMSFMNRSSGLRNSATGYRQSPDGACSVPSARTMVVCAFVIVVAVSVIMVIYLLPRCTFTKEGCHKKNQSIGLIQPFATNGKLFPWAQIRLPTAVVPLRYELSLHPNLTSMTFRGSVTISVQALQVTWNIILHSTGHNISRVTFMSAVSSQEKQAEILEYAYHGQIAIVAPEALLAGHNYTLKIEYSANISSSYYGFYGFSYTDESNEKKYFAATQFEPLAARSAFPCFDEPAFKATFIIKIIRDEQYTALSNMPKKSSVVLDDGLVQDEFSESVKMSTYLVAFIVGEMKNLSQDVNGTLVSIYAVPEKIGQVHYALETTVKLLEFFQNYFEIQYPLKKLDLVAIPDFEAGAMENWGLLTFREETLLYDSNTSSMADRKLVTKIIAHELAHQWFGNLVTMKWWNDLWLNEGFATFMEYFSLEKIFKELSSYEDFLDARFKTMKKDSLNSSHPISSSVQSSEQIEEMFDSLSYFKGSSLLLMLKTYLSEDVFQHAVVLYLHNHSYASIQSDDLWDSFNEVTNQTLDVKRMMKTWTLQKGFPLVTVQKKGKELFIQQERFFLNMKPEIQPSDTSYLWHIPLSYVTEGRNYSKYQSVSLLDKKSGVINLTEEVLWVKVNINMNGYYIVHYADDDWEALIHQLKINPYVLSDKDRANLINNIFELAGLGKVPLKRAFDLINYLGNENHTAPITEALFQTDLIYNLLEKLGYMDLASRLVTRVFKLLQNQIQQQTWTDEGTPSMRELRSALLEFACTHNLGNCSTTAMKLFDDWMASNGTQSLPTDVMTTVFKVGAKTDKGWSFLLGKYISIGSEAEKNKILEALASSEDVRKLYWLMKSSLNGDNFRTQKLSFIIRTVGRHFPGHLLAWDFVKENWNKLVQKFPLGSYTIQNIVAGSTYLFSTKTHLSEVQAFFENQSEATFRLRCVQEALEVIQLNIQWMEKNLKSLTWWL
UniProt O95202, 527-554: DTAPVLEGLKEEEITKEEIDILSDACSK
UniProt P36776: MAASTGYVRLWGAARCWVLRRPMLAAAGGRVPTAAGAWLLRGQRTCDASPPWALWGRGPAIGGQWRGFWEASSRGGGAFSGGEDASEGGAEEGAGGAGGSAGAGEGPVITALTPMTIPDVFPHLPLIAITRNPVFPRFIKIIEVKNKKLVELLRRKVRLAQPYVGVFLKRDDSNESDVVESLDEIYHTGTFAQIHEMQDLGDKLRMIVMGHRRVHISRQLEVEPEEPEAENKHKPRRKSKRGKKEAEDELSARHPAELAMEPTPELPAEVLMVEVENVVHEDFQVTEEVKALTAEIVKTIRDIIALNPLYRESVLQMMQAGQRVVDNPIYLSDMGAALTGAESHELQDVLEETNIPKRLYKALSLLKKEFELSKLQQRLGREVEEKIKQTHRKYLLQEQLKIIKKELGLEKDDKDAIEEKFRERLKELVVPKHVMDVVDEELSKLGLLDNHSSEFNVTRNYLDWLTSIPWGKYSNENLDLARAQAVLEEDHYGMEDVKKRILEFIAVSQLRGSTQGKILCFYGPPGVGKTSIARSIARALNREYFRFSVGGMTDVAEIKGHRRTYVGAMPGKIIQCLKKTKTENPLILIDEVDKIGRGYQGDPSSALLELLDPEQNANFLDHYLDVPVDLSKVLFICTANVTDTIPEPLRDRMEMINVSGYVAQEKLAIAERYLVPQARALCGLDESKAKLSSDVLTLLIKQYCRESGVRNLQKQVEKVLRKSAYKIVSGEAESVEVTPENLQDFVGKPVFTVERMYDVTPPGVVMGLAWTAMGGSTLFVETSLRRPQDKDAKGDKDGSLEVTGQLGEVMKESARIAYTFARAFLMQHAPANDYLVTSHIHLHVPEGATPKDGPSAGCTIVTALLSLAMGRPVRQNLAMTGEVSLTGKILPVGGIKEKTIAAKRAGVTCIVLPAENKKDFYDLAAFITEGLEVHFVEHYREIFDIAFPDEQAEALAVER
UniProt Q8TBB5, 413-432: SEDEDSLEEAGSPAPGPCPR
UniProt O60870: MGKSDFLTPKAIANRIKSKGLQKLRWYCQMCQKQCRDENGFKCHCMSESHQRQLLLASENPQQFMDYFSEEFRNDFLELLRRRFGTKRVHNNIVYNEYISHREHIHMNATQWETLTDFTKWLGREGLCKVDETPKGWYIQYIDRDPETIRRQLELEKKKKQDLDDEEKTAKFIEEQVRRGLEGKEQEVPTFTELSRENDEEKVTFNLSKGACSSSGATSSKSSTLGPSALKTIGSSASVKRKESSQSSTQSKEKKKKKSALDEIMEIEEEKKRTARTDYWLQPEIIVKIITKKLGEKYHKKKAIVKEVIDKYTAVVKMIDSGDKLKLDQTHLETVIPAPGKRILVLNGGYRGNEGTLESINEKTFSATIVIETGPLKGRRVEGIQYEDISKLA
UniProt Q9Y2U8: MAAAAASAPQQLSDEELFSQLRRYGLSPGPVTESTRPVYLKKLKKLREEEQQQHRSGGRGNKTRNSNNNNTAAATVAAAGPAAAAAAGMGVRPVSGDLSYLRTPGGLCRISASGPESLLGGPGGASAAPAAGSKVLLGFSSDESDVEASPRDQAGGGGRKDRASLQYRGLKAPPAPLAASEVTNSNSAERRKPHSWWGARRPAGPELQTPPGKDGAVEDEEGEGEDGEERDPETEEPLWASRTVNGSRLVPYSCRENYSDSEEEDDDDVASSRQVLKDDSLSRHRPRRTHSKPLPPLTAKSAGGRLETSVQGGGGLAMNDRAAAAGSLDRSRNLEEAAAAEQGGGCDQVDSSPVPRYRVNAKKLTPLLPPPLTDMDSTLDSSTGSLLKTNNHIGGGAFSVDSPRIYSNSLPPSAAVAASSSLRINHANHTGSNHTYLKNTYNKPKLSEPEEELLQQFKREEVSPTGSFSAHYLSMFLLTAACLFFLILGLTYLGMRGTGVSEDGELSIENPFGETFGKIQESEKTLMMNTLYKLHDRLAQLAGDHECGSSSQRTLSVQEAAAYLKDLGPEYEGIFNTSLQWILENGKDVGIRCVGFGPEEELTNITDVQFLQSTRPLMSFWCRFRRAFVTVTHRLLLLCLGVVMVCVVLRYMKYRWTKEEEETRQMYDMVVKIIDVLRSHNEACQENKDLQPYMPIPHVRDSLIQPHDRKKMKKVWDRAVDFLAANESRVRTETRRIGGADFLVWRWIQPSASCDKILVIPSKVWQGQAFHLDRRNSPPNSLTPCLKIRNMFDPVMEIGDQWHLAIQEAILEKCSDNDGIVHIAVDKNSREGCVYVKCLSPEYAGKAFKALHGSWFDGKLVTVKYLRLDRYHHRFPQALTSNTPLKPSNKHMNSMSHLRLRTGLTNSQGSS
UniProt Q96EM0: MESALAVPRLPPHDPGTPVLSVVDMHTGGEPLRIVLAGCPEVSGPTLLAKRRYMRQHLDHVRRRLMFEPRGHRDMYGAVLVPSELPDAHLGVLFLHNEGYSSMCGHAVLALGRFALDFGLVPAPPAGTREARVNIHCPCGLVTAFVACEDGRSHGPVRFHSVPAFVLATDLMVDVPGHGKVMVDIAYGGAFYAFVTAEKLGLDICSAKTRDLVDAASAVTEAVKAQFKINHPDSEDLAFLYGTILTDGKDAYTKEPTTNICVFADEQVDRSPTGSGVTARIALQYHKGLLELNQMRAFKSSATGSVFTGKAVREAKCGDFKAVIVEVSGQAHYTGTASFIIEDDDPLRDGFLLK

Experiments:
[1] = compound: ClCC(=O)N[C@@H]1CCCc2ccccc12; experiment: log2 mean competition ratio of IA-DTB cysteine labelling (DMSO/compound) (log2 ratio); higher = stronger cysteine engagement by compound; conditions: treatment time: 4 h, cell line lysate: HEK293T
Description: (§1)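 IA-DTB competitive cysteine chemoproteomics in HEK293T RIPA lysate. Lysates were treated with compound 29 or 30 at 50 or 200 µM for 4 h, then IA-DTB (500 µM, 1 h), trypsin-digested, NeutrAvidin-enriched and analysed by diaPASEF. Competition ratio = intensity DMSO / intensity compound (n=4 treated, n=64 DMSO); binding: mean log2 CR ≥ 1 and p ≤ 0.05 plus QC filters. Target is the cysteine site.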

[2] = compound: ClCC(=O)N[C@H]1CCCc2ccccc12; experiment: as above; conditions: treatment time: 4 h, cell line lysate: HEK293T
Description: as §1

Row | Target | log2 mean competition ratio ([1]; 50 µM) | log2 mean competition ratio ([1]; 200 µM) | log2 mean competition ratio ([2]; 200 µM) | log2 mean competition ratio ([2]; 50 µM)
1 | KLHDC10 C73 (UniProt Q6PID8) | 0.265 | 0.231 | -0.0251 | –
2 | KIF7 C1283 | 0.33 | -0.267 | – | –
3 | L2HGDH C272 (UniProt Q9H9P8) | -0.114 | -0.0691 | -0.0637 | 0.021
4 | LGALS1 C61 (UniProt P09382) | -0.105 | -0.508 | – | –
5 | LARP1B C838, A0A3B3ISF0 | 0.486 | 0.0425 | 0.0744 | -0.255
6 | KLHDC3 C102 (UniProt Q9BQ90) | -0.0247 | 0.0294 | – | –
7 | LOC100421372 C227 | 0.385 | -0.278 | – | –
8 | LPIN3 C711 (UniProt Q9BQK8) | -0.104 | -0.109 | – | –
9 | LRIG1 C1066 | 0.0463 | -0.341 | -0.569 | –
10 | LACTB2 C100 (UniProt Q53H82) | 0.0461 | 0.0569 | 0.193 | 0.0468
11 | LDAH C261 (UniProt Q9H6V9) | -0.0836 | 0.0944 | – | –
12 | KSR1 C41 (UniProt Q8IVT5) | 0.327 | 0.348 | 0.0301 | 0.142
13 | KIT C691 (UniProt P10721) | -0.188 | -0.0408 | – | –
14 | KMT2D C1909 (UniProt O14686) | 0.112 | -0.0881 | -0.127 | 0.322
15 | LRFN1 C651 (UniProt Q9P244) | -0.313 | -0.221 | – | –
16 | KMT2C C473 (UniProt Q8NEZ4) | 0.0945 | -0.0357 | – | –

Exported with tabs: entries from further up.
Row	Target	log2 mean competition ratio ([1]; 50 µM)	log2 mean competition ratio ([1]; 200 µM)	log2 mean competition ratio ([2]; 200 µM)	log2 mean competition ratio ([2]; 50 µM)
3	L2HGDH C272 (UniProt Q9H9P8)	-0.114	-0.0691	-0.0637	0.021
4	LGALS1 C61 (UniProt P09382)	-0.105	-0.508	–	–

Additional entries

Row | Target | log2 mean competition ratio ([1]; 50 µM) | log2 mean competition ratio ([1]; 200 µM) | log2 mean competition ratio ([2]; 200 µM) | log2 mean competition ratio ([2]; 50 µM)
17 | LNPEP C305 (UniProt Q9UIQ6) | -0.0266 | -0.546 | – | –
18 | LCP1 C336 (UniProt P13796) | -0.0839 | 0.1 | – | –
19 | LETM1 C552 (UniProt O95202) | -0.296 | -0.0258 | -0.0303 | -0.0721
20 | KLRG2 C197 | -0.213 | 0.321 | – | –
21 | LONP1 C682 (UniProt P36776) | -0.0266 | -0.0335 | – | –
22 | KIF5B C421 (UniProt P33176) | 0.00779 | -0.193 | – | –
23 | LCLAT1 C336 (UniProt Q6UWP7) | 0.531 | 0.103 | 0.221 | 0.445
24 | LRCH2 C507 | -0.251 | -0.000438 | – | –
25 | LRBA C1228 | -0.0445 | -0.0891 | – | –
26 | LPP C364 (UniProt Q93052) | 0.0328 | -0.0567 | – | –
27 | KLHDC4 C430 (UniProt Q8TBB5) | -0.504 | 0.203 | 0.0545 | -0.0766
28 | KIF7 C1065 | -0.0451 | -0.135 | – | –
29 | KIN C212 (UniProt O60870) | -0.0417 | -0.0797 | – | –
30 | LRP1 C2561 (UniProt Q07954) | -0.0952 | 0.449 | – | –
31 | LEMD3 C785 (UniProt Q9Y2U8) | -0.0194 | 0.198 | 0.226 | 0.132
32 | L3HYPDH C205 (UniProt Q96EM0) | -0.0948 | -0.121 | – | –
